Source: publication PMC11020354
No constants are given. Whether binding was seen depends on the method and setting. Binding seen in cells or lysates may run through a third protein. Some results given as binding are weak or reduced against the parent protein; the word gives no strength.

By UniProt entry, the sequences of proteins in these tests, tags left out.
UniProt P10111: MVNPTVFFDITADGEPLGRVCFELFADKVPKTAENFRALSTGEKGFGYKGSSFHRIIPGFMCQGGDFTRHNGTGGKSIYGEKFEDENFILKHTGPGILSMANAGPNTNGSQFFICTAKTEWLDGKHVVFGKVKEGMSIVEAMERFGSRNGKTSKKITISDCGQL
UniProt F1M707: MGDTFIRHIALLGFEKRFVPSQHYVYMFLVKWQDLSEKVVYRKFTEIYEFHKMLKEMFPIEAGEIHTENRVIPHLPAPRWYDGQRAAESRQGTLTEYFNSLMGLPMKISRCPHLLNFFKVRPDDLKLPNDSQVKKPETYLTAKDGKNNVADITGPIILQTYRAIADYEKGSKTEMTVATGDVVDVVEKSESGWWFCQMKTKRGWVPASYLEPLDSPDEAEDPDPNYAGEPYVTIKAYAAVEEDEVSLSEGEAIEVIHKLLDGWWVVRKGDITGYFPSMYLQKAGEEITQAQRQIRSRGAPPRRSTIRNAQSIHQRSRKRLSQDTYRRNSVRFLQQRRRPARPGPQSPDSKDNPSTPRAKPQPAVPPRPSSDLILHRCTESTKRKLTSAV

Biological target: Cyclophilin A (rat (endogenous in H9c2)) (UniProt P10111)
Assay: co-IP; anti-CyPA antibody on Protein A + G magnetic beads, H9c2 lysate incubated overnight at 4 °C, Western blot for p47phox; cells with or without PA treatment and with or without circ_005077 overexpression

binding: binds
Substance: p47PHOX (from UniProt F1M707 1-389)
